This test concerns the target RSV postfusion F (postF), subtype B (respiratory syncytial virus subtype B). Nature of the test: BLI.

We go through three molecules from US20260258115A1.

These are yes or no findings as the source states them, for the method shown.

B1: ADI-22773 (antibody, V domains shown)
VH: QVQLVQSGAEVKKPGASVKVSCKASGYTFTSYGISWVRQAPGQGLEWMGWISAYNGNTNYAQKLQGRVTMTTDTSTSTAYMELRSLRSDDTAVYYCARESALSRDGYNYGDVDYWGQGTLVTVSS
VL: ETTLTQSPLSLPVTLGQPASISCRSSQSLVYSDGNTYLNWFQQRPGQSPRRLIYKVSNRDSGVPDRFSGSGSGTDFTLKISRVEAEDVGVYYCMQGTHWPPTFGQGTKLEIK
As to B1, the binding entry is recorded as “no binding”.

B2: ADI-22766 (antibody, V domains shown)
VH: EVQLVESGGGLVQPGRSLRLSCAASGFTFDDYAMHWVRQAPGKGLEWVSGISWNSGSIGYADSVKGRFTISRDNAKNSLYLQMNSLRAEDTALYYCAKDGRFSLSHTYYFDYWGQGTLVTVSS
VL: QPVLTQPPSASGSPGQSVTISCTGTSSDVGGYNYVSWYQQHPGKAPKLMIYEVSKRPSGVPNRFSGSKSGNTASLTVSGLQAEDEADYYCSSYAGSNNLYVFGTGTKVTVL
Turning to B2, the binding entry is “no binding”.

B3: ADI-14390 (antibody, V domains shown)
VH: QVQLVESGPGLVKPSETLSLTCAVSGYSISSGYYWGWIRQPPGKGLEWIGNIYHSGSTYYNPSLKSRVTISVDTSKNQFSLKLSSVTAADTAVYYCARATLRFTLVREVVVTACDAFDIWGQGTTVTVSS
VL: QSALTQPASVSGSPGQSITISCTGTSSDVGSYNLVSWYQQHPGKVPKLVIYEVNKRPSGVSNRFSGSKSGNTASLTISGLQAEDEADYYCCSYAGSSTFVVFGGGTKLTVL
Turning to B3, the binding entry is reported as “no binding”.
